Values from PubChem BioAssay AID504764 (Drosophila RNAi Screening Center, 2011)
Test: 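Knock-downs that raise or lower a Notch target reporter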 (primary screen). Cell system: Drosophila Kc167 cells. Reagents: long dsRNA against Drosophila genes. Duration: about 5 days (4 days dsRNA, then 24 h after transfection). Treatment: transfection of constitutively active membrane-tethered Notch lacking the extracellular domain, read 24 h later. Measured: 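Light from a Notch-responsive E(spl)m3 luciferase reporter under active Notch, with control-promoter and no-Notch reporter wells to normalise; raw counts from paired wells a and b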. Direction: induced reporter light, run 1, well a and induced reporter light, run 1, well b: higher = more light from the Notch target reporter with active Notch; control promoter light, run 1, well a and control promoter light, run 1, well b: higher = more light from the viral control promoter (cell number, transfection, viability); uninduced reporter light, run 1, well a: higher = more light from the Notch target reporter without active Notch. Active means: 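Hit if the duplicate-averaged log2 ratio of induced to control-promoter light gives a plate-wise z beyond ±2, or induced to uninduced beyond ±1.8; weak-control or discordant-duplicate wells dropped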. Calls: active = modifier hit (raised or lowered Notch signal); inactive = not a hit.
The deposit covers about 22,000 reagents; below is an unselected part of those with a known target gene and a result. In the full data, 403 (1.9%) got an active call. 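Unnormalised raw counts per well; ratio z-scores behind the hit calls and whether each hit raises or lowers signal are not deposited.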 Entries without a mark were called inactive. The record does not give: the amount of reagent.

Silencing of CG1737 [DRSC19771] resulted in: induced reporter light, run 1, well a = 1.91e5; induced reporter light, run 1, well b = 1.84e5; control promoter light, run 1, well a = 3.52e5; control promoter light, run 1, well b = 2.72e5; uninduced reporter light, run 1, well a = 14085. With knock-down of Orc5 (Origin recognition complex subunit 5) [DRSC03390] the results were induced reporter light, run 1, well a = 80115; induced reporter light, run 1, well b = 99405; control promoter light, run 1, well a = 1.21e5; control promoter light, run 1, well b = 1.06e5; uninduced reporter light, run 1, well a = 7600. Silencing of capu (cappuccino) [DRSC00208] came out at: induced reporter light, run 1, well a = 1.10e5; induced reporter light, run 1, well b = 83905; control promoter light, run 1, well a = 1.57e5; control promoter light, run 1, well b = 1.31e5; uninduced reporter light, run 1, well a = 8985. capu (cappuccino) [DRSC00209] showed induced reporter light, run 1, well a = 94680; induced reporter light, run 1, well b = 79775; control promoter light, run 1, well a = 1.05e5; control promoter light, run 1, well b = 1.03e5; uninduced reporter light, run 1, well a = 8045. capu (cappuccino) [DRSC00434] scored induced reporter light, run 1, well a = 1.99e5; induced reporter light, run 1, well b = 1.41e5; control promoter light, run 1, well a = 1.57e5; control promoter light, run 1, well b = 1.30e5; uninduced reporter light, run 1, well a = 9785. After knock-down of capu (cappuccino) [DRSC00807] the results were induced reporter light, run 1, well a = 2.20e5; induced reporter light, run 1, well b = 2.38e5; control promoter light, run 1, well a = 2.25e5; control promoter light, run 1, well b = 2.07e5; uninduced reporter light, run 1, well a = 20985.

With knock-down of ths (thisbe) [DRSC06153], the record shows induced reporter light, run 1, well a = 16690; induced reporter light, run 1, well b = 13115; control promoter light, run 1, well a = 17495; control promoter light, run 1, well b = 12505; uninduced reporter light, run 1, well a = 5328. Against CG15042 [DRSC19618] the deposit lists induced reporter light, run 1, well a = 81640; induced reporter light, run 1, well b = 59325; control promoter light, run 1, well a = 82390; control promoter light, run 1, well b = 70915; uninduced reporter light, run 1, well a = 8040. Against Rh6 (Rhodopsin 6) [DRSC16823], the entry reads induced reporter light, run 1, well a = 2.62e5; induced reporter light, run 1, well b = 2.62e5; control promoter light, run 1, well a = 2.62e5; control promoter light, run 1, well b = 2.49e5; uninduced reporter light, run 1, well a = 17905. Depletion of sens (senseless) [DRSC09263] came out at: induced reporter light, run 1, well a = 3000; induced reporter light, run 1, well b = 3675; control promoter light, run 1, well a = 5425; control promoter light, run 1, well b = 6075; uninduced reporter light, run 1, well a = 3920. Depletion of CG8641 [DRSC11028] came out at: induced reporter light, run 1, well a = 1.74e5; induced reporter light, run 1, well b = 1.76e5; control promoter light, run 1, well a = 2.25e5; control promoter light, run 1, well b = 1.62e5; uninduced reporter light, run 1, well a = 9115.

2 entries from above, set out differently:
predicted target | dsRNA | induced reporter light, run 1, well a | induced reporter light, run 1, well b | control promoter light, run 1, well a | control promoter light, run 1, well b | uninduced reporter light, run 1, well a
sens (senseless) | DRSC09263 | 3000 | 3675 | 5425 | 6075 | 3920
CG8641 | DRSC11028 | 1.74e5 | 1.76e5 | 2.25e5 | 1.62e5 | 9115

The list goes on:
With knock-down of CG6765 [DRSC10706], the record shows induced reporter light, run 1, well a = 1.91e5; induced reporter light, run 1, well b = 1.84e5; control promoter light, run 1, well a = 1.95e5; control promoter light, run 1, well b = 1.38e5; uninduced reporter light, run 1, well a = 8780. Depletion of CG6028 [DRSC15951] gave: induced reporter light, run 1, well a = 1.63e5; induced reporter light, run 1, well b = 1.27e5; control promoter light, run 1, well a = 1.91e5; control promoter light, run 1, well b = 2.36e5; uninduced reporter light, run 1, well a = 11615. Depletion of GluRS-m (Glutamyl-tRNA synthetase, mitochondrial) [DRSC10431] came out at: induced reporter light, run 1, well a = 1.32e5; induced reporter light, run 1, well b = 1.09e5; control promoter light, run 1, well a = 1.28e5; control promoter light, run 1, well b = 1.47e5; uninduced reporter light, run 1, well a = 7140. CG6144 [DRSC02934] showed induced reporter light, run 1, well a = 2.31e5; induced reporter light, run 1, well b = 1.84e5; control promoter light, run 1, well a = 2.66e5; control promoter light, run 1, well b = 3.28e5; uninduced reporter light, run 1, well a = 13495. Against Parg (Poly(ADP-ribose) glycohydrolase) [DRSC18696], the values are induced reporter light, run 1, well a = 1.83e5; induced reporter light, run 1, well b = 1.89e5; control promoter light, run 1, well a = 2.27e5; control promoter light, run 1, well b = 2.39e5; uninduced reporter light, run 1, well a = 11542. Against cwo (clockwork orange) [DRSC17072] the deposit lists induced reporter light, run 1, well a = 91615; induced reporter light, run 1, well b = 81260; control promoter light, run 1, well a = 81225; control promoter light, run 1, well b = 63090; uninduced reporter light, run 1, well a = 5550.

With knock-down of Sf3a1 (Splicing factor 3a subunit 1) [DRSC15166], the screen gave induced reporter light, run 1, well a = 57545 (active); induced reporter light, run 1, well b = 67875; control promoter light, run 1, well a = 68775; control promoter light, run 1, well b = 77530; uninduced reporter light, run 1, well a = 4245. RpS26 (Ribosomal protein S26) [DRSC03420] showed induced reporter light, run 1, well a = 5380; induced reporter light, run 1, well b = 8170; control promoter light, run 1, well a = 9005; control promoter light, run 1, well b = 6100; uninduced reporter light, run 1, well a = 470. Against CG4133 [DRSC00639] the deposit lists induced reporter light, run 1, well a = 19670; induced reporter light, run 1, well b = 22232; control promoter light, run 1, well a = 25350; control promoter light, run 1, well b = 11910; uninduced reporter light, run 1, well a = 4650. Depletion of Zir (Zizimin-related) [DRSC00307] came out at: induced reporter light, run 1, well a = 98855; induced reporter light, run 1, well b = 2.08e5; control promoter light, run 1, well a = 1.93e5; control promoter light, run 1, well b = 2.02e5; uninduced reporter light, run 1, well a = 18185. Depletion of CG11598 [DRSC14331] resulted in: induced reporter light, run 1, well a = 6700; induced reporter light, run 1, well b = 7940; control promoter light, run 1, well a = 8890; control promoter light, run 1, well b = 7105; uninduced reporter light, run 1, well a = 645. With knock-down of CG2991 [DRSC00559] the results were induced reporter light, run 1, well a = 1.69e5; induced reporter light, run 1, well b = 1.97e5; control promoter light, run 1, well a = 1.87e5; control promoter light, run 1, well b = 2.05e5; uninduced reporter light, run 1, well a = 18175.

With knock-down of CG6178 [DRSC15984] the results were induced reporter light, run 1, well a = 1.76e5; induced reporter light, run 1, well b = 2.10e5; control promoter light, run 1, well a = 2.47e5; control promoter light, run 1, well b = 2.60e5; uninduced reporter light, run 1, well a = 19200.
